Data reported in PMC4565979.

What was measured:
[1] = system: Mot1NTD + TBP + NC2alpha + NC2beta; test: X-ray crystallography 3.8 A; settings: gel filtration: 20 mM MES pH 6.5 or HEPES pH 8.2, 60 mM KCl, 5 mM MgCl2, 2 mM DTT, 4 C; recombinant protein
[2] = system: Mot1 + TBP + NC2alpha + NC2beta; test: negative stain EM 22 A; settings: 1 mM ADP-BeFx; gel filtration: 20 mM MES pH 6.5 or HEPES pH 8.2, 60 mM KCl, 5 mM MgCl2, 2 mM DTT, 4 C; recombinant protein
[3] = system: Mot1 + TBP + NC2alpha + NC2beta; test: gel filtration / CX-MS; settings: ADP-BeFx, ATPgS or ADP, 1 mM; gel filtration: 20 mM MES pH 6.5 or HEPES pH 8.2, 60 mM KCl, 5 mM MgCl2, 2 mM DTT, 4 C; recombinant protein
Mot1 + TBP = test: EMSA; settings: EMSA: 0.5 nM DNA, 20 nM TBP, 30 nM Mot1, 30 nM NC2, 4% glycerol, 4 mM Tris-HCl pH 8, 60 mM KCl, 5 mM MgCl2, 25 C, recombinant protein, protein details: N-terminal His6,N-terminal His6, label: fluorescein at 5' end of one strand
[4] = system: Mot1NTD delta-latch + TBP + NC2alpha + NC2beta; test: EMSA; settings: no ATP, distinct shift; EMSA: 0.5 nM DNA, 20 nM TBP, 30 nM Mot1, 30 nM NC2, 4% glycerol, 4 mM Tris-HCl pH 8, 60 mM KCl, 5 mM MgCl2, 25 C; recombinant protein; protein details: N-terminal His6,none,His6 removed by TEV; label: fluorescein at 5' end of one strand
[5] = system: Mot1 delta-latch + TBP + NC2alpha + NC2beta; test: EMSA; settings: 50 uM ATP, impaired TBP removal; EMSA: 0.5 nM DNA, 20 nM TBP, 30 nM Mot1, 30 nM NC2, 4% glycerol, 4 mM Tris-HCl pH 8, 60 mM KCl, 5 mM MgCl2, 25 C; recombinant protein; protein details: N-terminal His6,none,His6 removed by TEV; label: fluorescein at 5' end of one strand
Mot1 delta-latch + TBP = test: EMSA; settings: 50 uM ATP, impaired TBP removal; EMSA: 0.5 nM DNA, 20 nM TBP, 30 nM Mot1, 30 nM NC2, 4% glycerol, 4 mM Tris-HCl pH 8, 60 mM KCl, 5 mM MgCl2, 25 C; recombinant protein; protein details: N-terminal His6; label: fluorescein at 5' end of one strand
TBP + NC2alpha + NC2beta = test: EMSA; settings: no ATP; EMSA: 0.5 nM DNA, 20 nM TBP, 30 nM Mot1, 30 nM NC2, 4% glycerol, 4 mM Tris-HCl pH 8, 60 mM KCl, 5 mM MgCl2, 25 C; recombinant protein; protein details: N-terminal His6,none,His6 removed by TEV; label: fluorescein at 5' end of one strand
Mot1NTD + TBP = test: EMSA; settings: no ATP, Mot1NTD displaces TBP from DNA; EMSA: 0.5 nM DNA, 20 nM TBP, 30 nM Mot1, 30 nM NC2, 4% glycerol, 4 mM Tris-HCl pH 8, 60 mM KCl, 5 mM MgCl2, 25 C; recombinant protein; protein details: N-terminal His6,N-terminal His6; label: fluorescein at 5' end of one strand
[6] = system: Mot1NTD + TBP + NC2alpha + NC2beta; test: EMSA; settings: no ATP, NC2 prevents displacement; EMSA: 0.5 nM DNA, 20 nM TBP, 30 nM Mot1, 30 nM NC2, 4% glycerol, 4 mM Tris-HCl pH 8, 60 mM KCl, 5 mM MgCl2, 25 C; recombinant protein; label: fluorescein at 5' end of one strand
[7] = target: T1, TBP (Encephalitozoon cuniculi) (UniProt Q8ST28); test: EMSA; settings: 20 nM TBP, no ATP, EMSA: 0.5 nM DNA, 30 nM Mot1, 30 nM NC2, 4% glycerol, 4 mM Tris-HCl pH 8, 60 mM KCl, 5 mM MgCl2, 25 C, recombinant protein, residues 1-198, protein details: N-terminal His6, label: fluorescein at 5' end of one strand
T1 sequence (looked up): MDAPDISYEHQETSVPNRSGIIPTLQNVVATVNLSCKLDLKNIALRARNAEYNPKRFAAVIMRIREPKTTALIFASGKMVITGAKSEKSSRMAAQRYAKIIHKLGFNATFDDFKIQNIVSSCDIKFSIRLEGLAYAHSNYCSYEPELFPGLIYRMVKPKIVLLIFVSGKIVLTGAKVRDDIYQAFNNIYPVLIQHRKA

[8] = system: Mot1NTD delta-latch + TBP; test: EMSA; settings: no ATP, more stable than Mot1NTD; EMSA: 0.5 nM DNA, 20 nM TBP, 30 nM Mot1, 30 nM NC2, 4% glycerol, 4 mM Tris-HCl pH 8, 60 mM KCl, 5 mM MgCl2, 25 C; recombinant protein; protein details: N-terminal His6; label: fluorescein at 5' end of one strand
[9] = system: Mot1 + TBP + NC2alpha + NC2beta; test: EMSA; settings: EMSA: 0.5 nM DNA, 20 nM TBP, 30 nM Mot1, 30 nM NC2, 4% glycerol, 4 mM Tris-HCl pH 8, 60 mM KCl, 5 mM MgCl2, 25 C, recombinant protein

“AGTAGGGCTATAAAAGGGGGTGGC (double strand) [24 bp crystallization TATA DNA]”: binds [1].

“CAGGCCGGGCGCCCGGCATGGCGGCCTATAAAAGGGTC (double strand) [38 bp EM TATA DNA]”: binds [2].

“CAGTACGGCCGGGCGCCCGGCATGGCGGCCTATAAAAGGGTC (double strand) [42 bp CX-MS TATA DNA]”: binds [3].

“GGGTACGGCCGGGCGCCCCGGATGGGGGGCTATAAAAGGGGGTGGGC (double strand) [47 bp TATA EMSA probe]”: binds more weakly (Mot1 + TBP; 50 uM ATP, Mot1 dissociates TBP from DNA); binds (Mot1 + TBP; no ATP); binds [4]. “GGGTACGGCCGGGCGCCCCGGATGGGGGGCTATAAAAGGGGGTGGGC (double strand) [47 bp TATA EMSA probe]”: binds [5]; binds (Mot1 delta-latch + TBP); binds (TBP + NC2alpha + NC2beta). “GGGTACGGCCGGGCGCCCCGGATGGGGGGCTATAAAAGGGGGTGGGC (double strand) [47 bp TATA EMSA probe]”: binds more weakly (Mot1NTD + TBP); binds [6]; binds [7]. “GGGTACGGCCGGGCGCCCCGGATGGGGGGCTATAAAAGGGGGTGGGC (double strand) [47 bp TATA EMSA probe]”: binds [8]; binds more weakly ([9]; 50 uM ATP, complex dissociated, label: fluorescein at 5' end of one strand); binds ([9]; no ATP, label: fluorescein at 5' end of one strand).

“GGGTACGGCCGGGCGCCCCGGATGGGGGGCTATAAAAGGGGGTGGGC (double strand) [47 bp digoxygenin end-blocked probe]”: binds more weakly ([9]; 50 uM ATP, anti-digoxygenin antibody 2.5 nM, end block does not affect dissociation, 5' digoxygenin on top or bottom strand, label: 5' fluorescein and 5' digoxygenin).

For at least one entry, the source does not settle the construct or the ends of the probe. For some of these results: A weaker result is weaker than the reference pair of the same experiment. For some of these results: At least one verdict rests on a figure or table, not on a statement of the authors. For some of these results: Tags and fusion partners may be left off the protein sequences shown.
